In PMC9980815:

Target: T1, GST-Abp1p (S. cerevisiae) (UniProt P15891)
T1 sequence: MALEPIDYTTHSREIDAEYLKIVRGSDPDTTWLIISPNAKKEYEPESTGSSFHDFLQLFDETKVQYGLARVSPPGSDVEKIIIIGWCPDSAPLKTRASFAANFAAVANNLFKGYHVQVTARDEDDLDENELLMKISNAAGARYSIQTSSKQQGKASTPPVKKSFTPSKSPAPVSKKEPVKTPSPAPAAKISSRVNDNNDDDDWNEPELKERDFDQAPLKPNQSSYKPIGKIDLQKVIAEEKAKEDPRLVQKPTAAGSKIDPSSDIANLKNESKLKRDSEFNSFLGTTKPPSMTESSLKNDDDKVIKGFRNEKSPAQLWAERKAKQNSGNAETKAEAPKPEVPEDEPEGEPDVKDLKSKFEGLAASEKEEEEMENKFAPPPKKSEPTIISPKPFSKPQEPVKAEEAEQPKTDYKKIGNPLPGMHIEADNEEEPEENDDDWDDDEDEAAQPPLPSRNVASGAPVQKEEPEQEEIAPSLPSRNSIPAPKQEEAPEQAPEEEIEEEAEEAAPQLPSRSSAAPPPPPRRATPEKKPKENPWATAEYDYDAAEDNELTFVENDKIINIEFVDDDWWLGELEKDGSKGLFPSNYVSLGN
Experiment: pull-down; protein extracts of yeast co-expressing GST-Abp1p and Xpress-Wbm0076 incubated with glutathione agarose 5 h at 4 C; 1x PBS, 1 mM PMSF, protease inhibitors, 1% Triton X-100; washed 5 times; immunoblot anti-Xpress and anti-GST

Wbm0076 (containing an N-terminal Xpress epitope) (Wolbachia endosymbiont of Brugia malayi)
binding: binds

Results are given in words; binding and its absence hold for the method and conditions named. In cells and extracts the contact can be indirect. Binding calls can cover weak binding; strength is not graded here. Where a sequence is shown, tags or fusion partners need not be part of it.
